This note sets out measurements from patent publication US10646479B2, “Use of N-(4-iodobenzoylamino)-5-ethyl-1,2,3,6-tetrahydropyridine as a treatment for cancer” (Florida A&M University, priority 2018, dated 2020).

The assay relates to MDA-MB-231 cell line. The assay is described as follows: CellTiter-Glo (CTG) luminescent cell viability assay, MDA-MB-231 cells. The settings on record: Homo sapiens, MDA-MB-231 triple negative breast cancer cells. It is filed as cell-based. Here is the method:
This compound was evaluated against three types of cancer cells: Ishikawa, MDA-MB-231, and MCF-7 using the CellTiter-Glo (CTG) luminescent cell viability assay. Ishikawa cell line is an endometrial adenocarcinoma isolated from a person. MDA-MB-231 is a triple negative breast cancer cell line isolated from a person. MCF-7 is an estrogen receptor positive breast cancer cell line isolated from a person. […] Tamoxifen is a selective estrogen receptor modulator (SERM).

The molecule `CC/C(=C(\c1ccccc1)c1ccc(OCCN(C)C)cc1)c1ccccc1` [Tamoxifen, reference compound] gave an IC50 of 29.4 µM.

A word on the IC50: it is the concentration at which inhibition is half-maximal.
